Data on two compounds can be found in US6255347A (priority 1997, dated 2001).

The test concerns APPs secretion by NIH 3T3 cell lines.

Regarding `COc1ccc2cc([C@H](C)C(=O)O)ccc2c1` [S-Naproxen], the “Density of APPs band” value was 2.78 ± 0.79. On to `COc1ccc2cc([C@@H](C)C(=O)O)ccc2c1` [R-Naproxen], for which the “Density of APPs band” value is listed as 3.34 ± 0.41.
